Reference: PubChem BioAssay AID1259425 (University of Nebraska Medical Center, 2018)
Purpose: 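Compare each knockdown with KSR1 silencing using changes in marker transcripts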 (primary screen). Cell system: HCT116 human colon cancer cells. Reagents: siRNA pool against human genes, 50 nM siRNA. Measurement: 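After 50 nM siRNA pool, branched-DNA assay measures six marker transcripts per well, minus blank, normalised to the geometric mean of two housekeeping transcripts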. Reading the numbers: BNIP3L mRNA: higher = more BNIP3L transcript after knockdown.
This is an unselected part of about 14,000 reagents tested. A reagent listed more than once was tested more than once; the source does not tell the runs apart. Further read-outs or replicates are left out here. Reagent sequences are not shown. The record does not give: the time to read-out.

| gene symbol | BNIP3L mRNA, set 1 |
| --- | --- |
| CHCHD3 | 0.0799 |
| KRT31 | 0.101 |
| NCKIPSD | 0.063 |
| NCKIPSD | 0.0564 |
| IFFO1 | 0.326 |
| CEP70 | 0.183 |
| BAALC | 0.137 |
| KEAP1 | 0.0635 |
| REXO2 | 0.0788 |
| PLOD1 | 0.122 |
| DLX3 | 0.0807 |
| DISP3 | 0.185 |
| MFRP | 0.184 |
| NPY5R | 0.172 |
| OR1F1 | 0.177 |
| IL1A | 0.0263 |
| PAPOLG | 0.14 |
| ADISSP | 0.0814 |
| ZRANB3 | 0.18 |
| ST8SIA5 | 0.117 |
| TRMO | 0.204 |
| SLC22A13 | 0.168 |
| CD38 | 0.0545 |
| STAG2 | 0.0752 |
| HSP90AA1 | 0.134 |
| CYSLTR2 | 0.258 |
| RFC5 | 0.214 |
| ADAMTS10 | 0.102 |
| NHERF1 | 0.261 |
| STX10 | 0.0536 |
| VIRMA | 0.0718 |
| MAP4 | 0.309 |
| PRSS22 | 0.0954 |
| PCDHB10 | 0.254 |
| RAD51B | 0.0606 |
| MYO5A | 0.0571 |
| RBBP4 | 0.0645 |
| FOXO1 | 0.0419 |
| SMPD3 | 0.121 |
| SLA2 | 0.17 |
| MACROD1 | 0.11 |
| FGF5 | 0.0672 |
| SLC6A6 | 0.0431 |
| RARG | 0.0709 |
| RAPGEF6 | 0.292 |
| TEX264 | 0.1 |
| USP1 | 0.0707 |
| USP31 | 0.11 |
| MRPL33 | 0.0969 |
| PCDHB13 | 0.29 |

Reformatted: entries from further up.
NCKIPSD | BNIP3L mRNA, set 1: 0.0564
IFFO1 | BNIP3L mRNA, set 1: 0.326
CEP70 | BNIP3L mRNA, set 1: 0.183
BAALC | BNIP3L mRNA, set 1: 0.137
KEAP1 | BNIP3L mRNA, set 1: 0.0635
